Experimental data: US4008209 (dated 1977)

Assay: peptide synthesis
Conditions: whole synthesis

(Pyr)Glu-His(Tos)-Trp-Ser(Bzl)-Tyr-(Bzl)-D-Leu-Leu-Arg(Tos)-Pro-NH-CH2 -CH3
difficulty met: This crude product includes a large proportion of impurity which is likely to be methyl ester
